Results published in article PMC8516970.
No constants are given. Whether binding was seen depends on the method and setting. Binding seen in cells or lysates may run through a third protein. Some results given as binding are weak or reduced against the parent protein; the word gives no strength.

Chains of the proteins cited; added tags and fusions are not shown.
UniProt Q9UBL6: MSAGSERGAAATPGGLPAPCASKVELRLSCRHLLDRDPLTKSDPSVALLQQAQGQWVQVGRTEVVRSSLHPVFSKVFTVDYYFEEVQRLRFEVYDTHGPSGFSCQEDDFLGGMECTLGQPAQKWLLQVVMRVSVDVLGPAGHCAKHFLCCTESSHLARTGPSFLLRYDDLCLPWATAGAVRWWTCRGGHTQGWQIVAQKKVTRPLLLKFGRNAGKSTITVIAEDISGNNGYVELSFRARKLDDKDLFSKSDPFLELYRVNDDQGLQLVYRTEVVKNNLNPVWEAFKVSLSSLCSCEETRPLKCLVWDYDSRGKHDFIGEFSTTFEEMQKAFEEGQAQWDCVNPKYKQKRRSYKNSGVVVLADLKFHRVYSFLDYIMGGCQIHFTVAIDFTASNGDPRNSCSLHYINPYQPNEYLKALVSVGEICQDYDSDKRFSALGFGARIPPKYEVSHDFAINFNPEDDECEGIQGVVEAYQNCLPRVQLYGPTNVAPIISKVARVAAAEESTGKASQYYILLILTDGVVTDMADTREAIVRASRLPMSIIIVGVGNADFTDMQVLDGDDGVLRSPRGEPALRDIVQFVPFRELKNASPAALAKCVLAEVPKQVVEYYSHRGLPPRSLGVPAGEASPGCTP
UniProt P19338: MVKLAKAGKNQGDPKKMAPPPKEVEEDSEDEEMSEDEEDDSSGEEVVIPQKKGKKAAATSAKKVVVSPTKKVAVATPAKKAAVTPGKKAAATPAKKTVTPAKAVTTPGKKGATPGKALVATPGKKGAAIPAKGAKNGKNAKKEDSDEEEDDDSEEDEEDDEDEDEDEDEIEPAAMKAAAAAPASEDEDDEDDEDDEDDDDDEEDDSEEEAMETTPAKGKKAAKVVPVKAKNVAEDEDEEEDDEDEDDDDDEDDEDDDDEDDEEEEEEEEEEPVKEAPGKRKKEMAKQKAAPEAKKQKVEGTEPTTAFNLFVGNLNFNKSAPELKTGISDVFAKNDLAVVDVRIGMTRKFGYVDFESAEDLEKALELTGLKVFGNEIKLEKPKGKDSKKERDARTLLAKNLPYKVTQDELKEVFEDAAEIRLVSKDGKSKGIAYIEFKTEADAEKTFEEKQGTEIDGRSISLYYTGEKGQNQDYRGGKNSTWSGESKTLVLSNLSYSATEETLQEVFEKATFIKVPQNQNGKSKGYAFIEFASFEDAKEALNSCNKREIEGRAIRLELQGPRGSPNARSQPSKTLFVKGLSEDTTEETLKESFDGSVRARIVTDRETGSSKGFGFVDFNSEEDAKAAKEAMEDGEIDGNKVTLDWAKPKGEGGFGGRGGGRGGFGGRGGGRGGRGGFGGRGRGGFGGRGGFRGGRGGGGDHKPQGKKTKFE
UniProt P25963: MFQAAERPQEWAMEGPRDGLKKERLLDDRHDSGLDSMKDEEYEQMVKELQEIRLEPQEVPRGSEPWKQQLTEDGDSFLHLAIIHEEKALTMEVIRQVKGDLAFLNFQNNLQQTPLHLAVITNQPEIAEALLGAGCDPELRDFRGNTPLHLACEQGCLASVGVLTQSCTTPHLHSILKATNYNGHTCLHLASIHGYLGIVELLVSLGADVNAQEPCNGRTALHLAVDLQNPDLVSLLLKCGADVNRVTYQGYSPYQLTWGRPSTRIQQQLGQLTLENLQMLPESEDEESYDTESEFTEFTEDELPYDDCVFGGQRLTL

Assays:
[1] = target: CPNE7 fused with GFP protein (lentivirus-CPNE7-GFP) (UniProt Q9UBL6); assay: co-IP; lysates of lv-CPNE7 transfected OLK-MSCs in NP-40 buffer; incubated at 4 °C overnight with GFP, total-IκBα, Nucleolin antibodies or normal IgG; Protein A/G PLUS agarose beads 1 h at 4 °C; western blot with GFP, CPNE7, total-IκBα, Nucleolin
[2] = target: Nucleolin (human (endogenous in OLK-MSCs)) (UniProt P19338); assay: as above

binding [1]: binds
binding [2]: binds
Substance: IκBα (from UniProt P25963 1-317)
